Binding data for 1 substance are collected here from paper PMC8429728, “TNK1 is a ubiquitin-binding and 14-3-3-regulated kinase that can be targeted to block tumor growth” (Nature Communications, 2021).

The target in this test is T1, Biotin-(4xPEG)-… (human).
T1 sequence (peptide, Biotin-(4xPEG) on the N-terminus): RNKGISRALESVLSLGP
The experiment in a line: BLI; biotin-tagged peptide loaded on streptavidin biosensors; 14-3-3ζ 50–1000 nM, 4 s association, 120 s dissociation; 0.001% TBST; 30 °C; Kd = Koff/Kon, mean of 3 runs; both purified. On the technique in general: In BLI a coated tip is dipped into the sample, and binding shifts an interference pattern.

These are yes or no findings as the source states them, for the method shown.

As for “14-3-3ζ (purified, from the GST-14-3-3ζ plasmid)”, the binding entry was “no binding (tested: 1000 nM)”.
